Source: PMC10401653
These are yes or no findings as the source states them, for the method shown.

Target: A11_(2-196), full-length annexin A11 proline-rich domain, GB1 tag cleaved (human) (UniProt P50995)
Assay: AUC; sedimentation velocity, 50,000 rpm, 20 °C, absorbance at 280 nm; individual constructs at ~20 and ~50 μM and mixtures of A11-PRD constructs with S100A6; both purified

Substance: A11_(2-196), full-length annexin A11 proline-rich domain, GB1 tag cleaved (from UniProt P50995 2-196) (domain or fragment)
- binding: no binding
